Laboratory results as given in paper PMC10711549.
Results are given in words; binding and its absence hold for the method and conditions named. In cells and extracts the contact can be indirect. Some results given as binding are weak or reduced against the parent protein; the word gives no strength.

The chains behind the UniProt entries cited, without tags or fusion partners.
UniProt Q15853: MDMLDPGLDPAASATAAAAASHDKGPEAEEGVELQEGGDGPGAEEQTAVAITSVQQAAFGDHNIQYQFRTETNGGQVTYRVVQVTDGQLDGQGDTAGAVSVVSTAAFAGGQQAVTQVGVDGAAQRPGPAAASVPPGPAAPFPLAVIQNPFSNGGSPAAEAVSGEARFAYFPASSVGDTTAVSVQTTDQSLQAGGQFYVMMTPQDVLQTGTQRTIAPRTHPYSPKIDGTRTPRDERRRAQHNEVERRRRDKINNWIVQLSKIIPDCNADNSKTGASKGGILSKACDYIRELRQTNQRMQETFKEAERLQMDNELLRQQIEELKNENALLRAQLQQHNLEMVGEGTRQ
UniProt Q15046: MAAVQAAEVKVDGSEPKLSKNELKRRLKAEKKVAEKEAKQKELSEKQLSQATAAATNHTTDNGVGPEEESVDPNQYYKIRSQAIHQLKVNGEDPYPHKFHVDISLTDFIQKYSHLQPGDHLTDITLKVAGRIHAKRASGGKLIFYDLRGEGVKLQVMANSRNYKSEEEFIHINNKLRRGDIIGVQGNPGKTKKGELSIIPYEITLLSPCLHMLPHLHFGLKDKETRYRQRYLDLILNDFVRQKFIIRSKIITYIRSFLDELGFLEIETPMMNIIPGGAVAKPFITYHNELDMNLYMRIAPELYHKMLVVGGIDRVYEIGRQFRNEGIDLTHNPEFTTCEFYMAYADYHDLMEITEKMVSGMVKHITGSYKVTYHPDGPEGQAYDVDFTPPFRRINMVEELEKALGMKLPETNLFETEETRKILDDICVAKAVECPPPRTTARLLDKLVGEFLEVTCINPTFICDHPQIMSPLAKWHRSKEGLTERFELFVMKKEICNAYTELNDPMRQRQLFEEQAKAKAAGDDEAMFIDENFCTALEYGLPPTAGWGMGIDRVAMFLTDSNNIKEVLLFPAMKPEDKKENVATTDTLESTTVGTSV

Biological target: Upstream transcription factor 2 (USF2) (human (endogenous in Jurkat)) (UniProt Q15853)
Experiment: co-IP; reciprocal co-IP (precipitation of USF2, blot for LysRS) from sonicated Jurkat cell lysates, without or with single-cycle HIV-1 infection; 1% Triton X-100, overnight

With “Human lysyl-tRNA synthetase (LysRS) (from UniProt Q15046 1-597) (enzyme)” as the substance, how does the binding read?
The binding was “binds”.
